Source: BindingDB's records for PubMed 8450829 (Cnrs, 1993)

The chains behind the UniProt entries cited, without tags or fusion partners.
UniProt P31387, whole entry: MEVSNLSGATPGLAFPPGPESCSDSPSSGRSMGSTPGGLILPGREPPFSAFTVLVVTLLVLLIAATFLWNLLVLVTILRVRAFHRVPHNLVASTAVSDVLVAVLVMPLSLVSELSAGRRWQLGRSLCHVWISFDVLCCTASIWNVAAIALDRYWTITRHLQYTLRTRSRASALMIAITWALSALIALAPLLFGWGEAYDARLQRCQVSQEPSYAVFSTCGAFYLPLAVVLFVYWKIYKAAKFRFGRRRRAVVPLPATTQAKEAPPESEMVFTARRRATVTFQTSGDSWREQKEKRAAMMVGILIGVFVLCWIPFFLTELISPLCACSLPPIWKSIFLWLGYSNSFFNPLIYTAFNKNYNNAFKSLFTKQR

Biological target: 5-hydroxytryptamine receptor 5B (Mus musculus, UniProt P31387)

Ki: 6.31 µM
SMILES: CC(C)NC[C@H](O)COc1cccc2ccccc12 [Propanolol,(+/-)]
